Values from PubChem BioAssay AID504764 (Drosophila RNAi Screening Center, 2011)

Aim: 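Genome-wide screen for regulators of Notch-driven gene expression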 (primary screen)
Cell system: Drosophila Kc167 cells
Reagent: long dsRNA against Drosophila genes
Time to read-out: about 5 days (4 days dsRNA, then 24 h after transfection)
Conditions: transfection of constitutively active membrane-tethered Notch lacking the extracellular domain, read 24 h later
Detection: 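Light from a Notch-responsive E(spl)m3 luciferase reporter under active Notch, with control-promoter and no-Notch reporter wells to normalise; raw counts from paired wells a and b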
Direction: induced reporter light, run 1, well a and induced reporter light, run 1, well b: higher = more light from the Notch target reporter with active Notch; control promoter light, run 1, well a and control promoter light, run 1, well b: higher = more light from the viral control promoter (cell number, transfection, viability); uninduced reporter light, run 1, well a: higher = more light from the Notch target reporter without active Notch
Hit rule: 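Hit if the duplicate-averaged log2 ratio of induced to control-promoter light gives a plate-wise z beyond ±2, or induced to uninduced beyond ±1.8; weak-control or discordant-duplicate wells dropped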
Meaning of the calls: active = modifier hit (raised or lowered Notch signal); inactive = not a hit
The deposit covers about 22,000 reagents; this is a random part of those with a known target gene and a result. In the full data, 403 (1.9%) got an active call. 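Unnormalised raw counts per well; ratio z-scores behind the hit calls and whether each hit raises or lowers signal are not deposited.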 Not given: the amount of reagent.

gene	DRSC id	induced reporter light, run 1, well a	induced reporter light, run 1, well b	control promoter light, run 1, well a	control promoter light, run 1, well b	uninduced reporter light, run 1, well a	outcome
ND-MWFE (GeneID 5740593)	DRSC06364	1.02e5	1.33e5	1.20e5	1.55e5	9940	inactive
Pc (GeneID 40358)	DRSC11873	88985	68815	91810	83665	4450	inactive
rngo (GeneID 32616)	DRSC19903	1.95e5	1.97e5	3.19e5	3.10e5	15440	inactive
CG9356 (GeneID 41122)	DRSC16476	1.59e5	1.30e5	92120	92385	11035	inactive
CG8765 (GeneID 40147)	DRSC11041	6010	4425	5245	3520	1278	inactive
Bulli (GeneID 38734)	DRSC10974	2.43e5	1.88e5	2.88e5	2.70e5	16845	inactive
Acyp2 (GeneID 41910)	DRSC15336	2.34e5	2.09e5	2.09e5	2.15e5	17245	inactive
CG15347 (GeneID 31779)	DRSC18031	1.31e5	1.43e5	2.55e5	2.36e5	9945	inactive
eas (GeneID 32585)	DRSC20329	64440	61035	76840	47565	9678	inactive
TwdlY (GeneID 318093)	DRSC19153	1.01e5	83985	89095	85365	7475	inactive
eca (GeneID 41177)	DRSC22290						active
CG4892 (GeneID 34949)	DRSC01937	1.56e5	1.79e5	2.17e5	2.40e5	14915	inactive
Doc1 (GeneID 39039)	DRSC11146	2.44e5	2.53e5	2.76e5	2.20e5	10770	inactive
CG4842 (GeneID 39817)	DRSC10453	1.29e5	1.10e5	2.16e5	2.23e5	6035	active
Elovl7 (GeneID 40943)	DRSC15452	72760	97585	71215	62280	5595	inactive
XNP (GeneID 43080)	DRSC15594	2.55e5	2.21e5	3.13e5	2.86e5	15400	inactive

Records listed so far called active:
gene	DRSC id	induced reporter light, run 1, well a	induced reporter light, run 1, well b	control promoter light, run 1, well a	control promoter light, run 1, well b	uninduced reporter light, run 1, well a	outcome
eca (GeneID 41177)	DRSC22290						active
CG4842 (GeneID 39817)	DRSC10453	1.29e5	1.10e5	2.16e5	2.23e5	6035	active

Next records:
gene	DRSC id	induced reporter light, run 1, well a	induced reporter light, run 1, well b	control promoter light, run 1, well a	control promoter light, run 1, well b	uninduced reporter light, run 1, well a	outcome
Rx (GeneID 37367)	DRSC03837	54660	84340	58250	78450	7290	inactive
Rx (GeneID 37367)	DRSC04652	41915	38105	42280	65220	2575	inactive
Rint1 (GeneID 38807)	DRSC11010	1.23e5	90965	72140	26820	7670	inactive
CG8854 (GeneID 36324)	DRSC07288	1.77e5	1.58e5	1.83e5	1.56e5	13450	inactive
CG43707 (GeneID 33601)	DRSC00280	1.48e5	1.01e5	1.09e5	1.13e5	6930	inactive
CG43707 (GeneID 33601)	DRSC22869						inactive
CG33330 (retired record) (GeneID 2768667)	DRSC13053	8420	8990	4355	3455	2840	inactive
CG33330 (retired record) (GeneID 2768667)	DRSC15495	1.06e5	1.34e5	78610	72510	8470	inactive
Mlc2 (GeneID 43587)	DRSC16741	1.61e5	1.97e5	1.79e5	1.67e5	12245	inactive
tant (GeneID 44785)	DRSC11401	1.67e5	2.02e5	2.47e5	1.95e5	5068	inactive
bab2 (GeneID 44254)	DRSC08150	95990	98010	1.48e5	1.89e5	8750	inactive
bab2 (GeneID 44254)	DRSC08380	26115	19592	36180	41935	3710	inactive
CG17075 (GeneID 33191)	DRSC00483	2.08e5	1.93e5	2.37e5	2.52e5	17735	inactive
Drep3 (GeneID 36292)	DRSC06312	98220	96840	1.09e5	1.10e5	10535	inactive
Drep3 (GeneID 36292)	DRSC22344						inactive
sle (GeneID 41262)	DRSC14557	1.49e5	1.65e5	1.15e5	1.10e5	10610	inactive
CG11585 (GeneID 32365)	DRSC19410	72025	76995	93375	66125	11365	inactive
Sys1 (GeneID 41023)	DRSC14372	88400	80670	83840	73645	5855	inactive
maca (GeneID 41892)	DRSC15738	2.08e5	2.19e5	2.36e5	2.27e5	15175	inactive
DIP-eta (GeneID 33793)	DRSC02342	1.36e5	1.53e5	1.45e5	1.27e5	8015	inactive
AIMP2 (GeneID 39690)	DRSC09877	1.16e5	1.53e5	85540	86790	8320	inactive
Ppcs (GeneID 42295)	DRSC14127	1.57e5	1.71e5	2.48e5	2.37e5	15840	inactive
CG11381 (GeneID 31067)	DRSC17780	20565	22800	30325	33200	3982	inactive
CecC (GeneID 43599)	DRSC16606	1.81e5	1.01e5	1.98e5	1.81e5	12120	inactive
CG42788 (GeneID 41817)	DRSC15330	2.49e5	2.24e5	2.29e5	2.17e5	17395	inactive
CG42788 (GeneID 41817)	DRSC16139	2.00e5	2.17e5	2.16e5	2.33e5	18985	inactive
CG42788 (GeneID 41817)	DRSC16152	1.95e5	2.37e5	2.12e5	2.27e5	17628	inactive
hppy (GeneID 37203)	DRSC07014	93760	93325	93535	1.23e5	7830	inactive
hppy (GeneID 37203)	DRSC07015	63430	86595	89950	76190	6460	inactive
hppy (GeneID 37203)	DRSC07016	68050	80570	1.10e5	1.04e5	5985	inactive
Nlg3 (GeneID 40912)	DRSC12477	1.27e5	1.78e5	1.57e5	1.52e5	11320	inactive
Nlg3 (GeneID 40912)	DRSC12524	72185	80535	1.32e5	62310	6630	inactive
Nlg3 (GeneID 40912)	DRSC12540	55925	76720	45315	37525	5570	inactive
Nlg3 (GeneID 40912)	DRSC12574	57105	96375	57650	56660	5128	inactive
